Assay results as given in publication doi:10.1101/2025.11.26.690573.
Where two headings read alike, the source gives them in different places. No constants are given. Whether binding was seen depends on the method and setting. In cells and extracts the contact can be indirect. Here binding means that the protein was enriched with, or labelled near, the bait; the list need not be complete.

By UniProt entry, the sequences of proteins in these tests, tags left out.
UniProt Q7L5N1: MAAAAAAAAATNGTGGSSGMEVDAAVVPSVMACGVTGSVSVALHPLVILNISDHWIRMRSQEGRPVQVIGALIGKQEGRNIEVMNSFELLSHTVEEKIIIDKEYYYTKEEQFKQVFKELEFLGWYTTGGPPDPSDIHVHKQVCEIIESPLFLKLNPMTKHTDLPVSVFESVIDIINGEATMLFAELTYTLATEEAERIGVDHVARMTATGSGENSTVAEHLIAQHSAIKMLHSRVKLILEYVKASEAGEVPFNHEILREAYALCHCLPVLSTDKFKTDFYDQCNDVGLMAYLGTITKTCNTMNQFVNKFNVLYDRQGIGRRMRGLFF
UniProt P61201: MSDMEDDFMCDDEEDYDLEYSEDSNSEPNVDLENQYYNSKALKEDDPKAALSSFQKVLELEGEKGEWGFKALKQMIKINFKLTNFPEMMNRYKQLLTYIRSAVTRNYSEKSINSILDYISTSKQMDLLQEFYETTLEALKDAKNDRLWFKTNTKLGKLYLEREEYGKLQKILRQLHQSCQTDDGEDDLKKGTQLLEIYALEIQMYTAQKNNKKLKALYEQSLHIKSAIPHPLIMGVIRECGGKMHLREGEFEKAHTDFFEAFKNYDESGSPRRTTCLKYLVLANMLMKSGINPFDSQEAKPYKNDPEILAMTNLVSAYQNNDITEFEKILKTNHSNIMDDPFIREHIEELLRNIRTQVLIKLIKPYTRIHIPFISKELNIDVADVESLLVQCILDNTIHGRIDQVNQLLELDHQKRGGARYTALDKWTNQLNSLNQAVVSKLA
UniProt Q13619: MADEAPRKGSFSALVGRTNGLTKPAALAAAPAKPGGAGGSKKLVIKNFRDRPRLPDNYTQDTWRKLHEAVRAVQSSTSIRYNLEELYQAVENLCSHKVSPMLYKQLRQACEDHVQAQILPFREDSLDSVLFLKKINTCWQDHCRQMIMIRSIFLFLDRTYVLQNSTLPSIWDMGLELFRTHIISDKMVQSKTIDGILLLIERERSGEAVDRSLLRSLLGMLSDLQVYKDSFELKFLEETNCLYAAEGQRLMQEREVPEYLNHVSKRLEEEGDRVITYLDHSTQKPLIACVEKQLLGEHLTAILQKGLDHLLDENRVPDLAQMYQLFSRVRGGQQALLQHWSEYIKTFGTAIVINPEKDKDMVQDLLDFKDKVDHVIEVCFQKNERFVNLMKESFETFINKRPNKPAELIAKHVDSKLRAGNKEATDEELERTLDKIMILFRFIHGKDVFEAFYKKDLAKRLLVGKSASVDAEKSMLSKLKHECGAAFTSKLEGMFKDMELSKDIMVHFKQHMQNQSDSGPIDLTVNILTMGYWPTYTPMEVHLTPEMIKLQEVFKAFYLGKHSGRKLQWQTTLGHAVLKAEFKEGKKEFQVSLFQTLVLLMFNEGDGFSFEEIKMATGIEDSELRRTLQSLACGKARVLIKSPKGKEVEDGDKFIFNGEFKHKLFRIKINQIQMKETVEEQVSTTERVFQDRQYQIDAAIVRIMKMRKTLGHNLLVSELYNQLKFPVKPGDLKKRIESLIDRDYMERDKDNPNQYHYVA
UniProt Q16531: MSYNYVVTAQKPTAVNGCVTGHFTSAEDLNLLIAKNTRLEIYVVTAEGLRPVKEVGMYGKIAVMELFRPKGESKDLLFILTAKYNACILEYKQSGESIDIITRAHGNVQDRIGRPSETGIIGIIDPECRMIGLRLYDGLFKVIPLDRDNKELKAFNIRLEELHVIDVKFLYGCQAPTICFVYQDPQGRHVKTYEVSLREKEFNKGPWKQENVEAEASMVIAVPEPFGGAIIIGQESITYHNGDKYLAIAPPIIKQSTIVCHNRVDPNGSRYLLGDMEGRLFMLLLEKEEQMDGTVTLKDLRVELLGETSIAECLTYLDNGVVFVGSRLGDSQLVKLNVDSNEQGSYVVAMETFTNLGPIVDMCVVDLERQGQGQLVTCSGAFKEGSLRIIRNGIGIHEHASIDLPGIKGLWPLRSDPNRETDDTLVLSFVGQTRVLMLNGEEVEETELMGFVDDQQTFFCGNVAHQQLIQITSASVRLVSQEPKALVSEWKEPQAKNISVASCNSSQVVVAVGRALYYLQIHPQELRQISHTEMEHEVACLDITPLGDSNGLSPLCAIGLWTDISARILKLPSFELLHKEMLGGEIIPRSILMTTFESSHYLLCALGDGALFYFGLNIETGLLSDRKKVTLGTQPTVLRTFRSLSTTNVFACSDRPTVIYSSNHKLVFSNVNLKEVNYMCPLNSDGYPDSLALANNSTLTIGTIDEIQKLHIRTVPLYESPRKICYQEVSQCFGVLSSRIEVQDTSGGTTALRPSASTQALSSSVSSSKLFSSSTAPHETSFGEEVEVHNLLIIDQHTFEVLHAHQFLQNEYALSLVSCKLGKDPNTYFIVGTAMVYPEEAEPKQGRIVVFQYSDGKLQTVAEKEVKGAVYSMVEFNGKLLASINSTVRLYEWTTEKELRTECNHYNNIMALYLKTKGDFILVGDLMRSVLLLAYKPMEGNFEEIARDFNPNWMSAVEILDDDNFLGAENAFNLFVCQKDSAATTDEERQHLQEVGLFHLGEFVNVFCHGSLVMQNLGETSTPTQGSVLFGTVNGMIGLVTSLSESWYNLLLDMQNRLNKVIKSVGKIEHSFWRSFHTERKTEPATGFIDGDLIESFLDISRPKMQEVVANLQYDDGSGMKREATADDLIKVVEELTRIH
UniProt Q92466: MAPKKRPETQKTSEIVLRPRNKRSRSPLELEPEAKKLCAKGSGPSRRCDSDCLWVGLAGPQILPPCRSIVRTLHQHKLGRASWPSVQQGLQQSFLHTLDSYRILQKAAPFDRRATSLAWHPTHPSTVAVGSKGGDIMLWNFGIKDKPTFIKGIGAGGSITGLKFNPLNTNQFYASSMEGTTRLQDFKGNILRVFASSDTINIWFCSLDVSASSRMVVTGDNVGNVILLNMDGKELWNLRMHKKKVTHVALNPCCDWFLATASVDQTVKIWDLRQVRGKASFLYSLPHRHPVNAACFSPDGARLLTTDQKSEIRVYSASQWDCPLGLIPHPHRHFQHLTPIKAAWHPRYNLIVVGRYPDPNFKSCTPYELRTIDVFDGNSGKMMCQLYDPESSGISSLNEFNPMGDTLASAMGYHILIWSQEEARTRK
UniProt Q9UBF6: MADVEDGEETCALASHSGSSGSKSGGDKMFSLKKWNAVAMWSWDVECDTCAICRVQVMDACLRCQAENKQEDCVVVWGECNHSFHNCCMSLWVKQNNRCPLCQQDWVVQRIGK

B1: DCAF4 (protein, UniProt Q8WV16 1-495)
chain: MNKSRWQSRRRHGRRSHQQNPWFRLRDSEDRSDSRAAQPAHDSGHGDDESPSTSSGTAGTSSVPELPGFYFDPEKKRYFRLLPGHNNCNPLTKESIRQKEMESKRLRLLQEEDRRKKIARMGFNASSMLRKSQLGFLNVTNYCHLAHELRLSCMERKKVQIRSMDPSALASDRFNLILADTNSDRLFTVNDVKVGGSKYGIINLQSLKTPTLKVFMHENLYFTNRKVNSVCWASLNHLDSHILLCLMGLAETPGCATLLPASLFVNSHPGIDRPGMLCSFRIPGAWSCAWSLNIQANNCFSTGLSRRVLLTNVVTGHRQSFGTNSDVLAQQFALMAPLLFNGCRSGEIFAIDLRCGNQGKGWKATRLFHDSAVTSVRILQDEQYLMASDMAGKIKLWDLRTTKCVRQYEGHVNEYAYLPLHVHEEEGILVAVGQDCYTRIWSLHDARLLRTIPSPYPASKADIPSVAFSSRLGGSRGAPGLLMAVGQDLYCYSYS
B2: FBXL12 (protein, UniProt Q9NXK8 1-326)
chain: MATLVELPDSVLLEIFSYLPVRDRIRISRVCHRWKRLVDDRWLWRHVDLTLYTMRPKVMWHLLRRYMASRLHSLRMGGYLFSGSQAPQLSPALLRALGQKCPNLKRLCLHVADLSMVPITSLPSTLRTLELHSCEISMAWLHKQQDPTVLPLLECIVLDRVPAFRDEHLQGLTRFRALRSLVLGGTYRVTETGLDAGLQELSYLQRLEVLGCTLSADSTLLAISRHLRDVRKIRLTVRGLSAPGLAVLEGMPALESLCLQGPLVTPEMPSPTEILSSCLTMPKLRVLELQGLGWEGQEAEKILCKGLPHCMVIVRACPKESMDWWM

Experiments:
Experiment in all cases: affinity purification with mass spectrometry; HEK293 cells with HBTH-CSN2 or HBTH-CSN6, 1 μM CSN5i-3 or DMSO for 16 hr, in-cell cross-linking with 0.025% formaldehyde, streptavidin resin; LC-MS/MS (DDA and DIA)
[1] = target: HBTH-tagged CSN6 (human) (UniProt Q7L5N1)
[2] = target: HBTH-tagged CSN2 (human) (UniProt P61201)
[3] = target: HBTH-tagged CSN2 (human) (UniProt P61201); remark: listed apart in the source
[4] = target: HBTH-tagged CSN6 (human) (UniProt Q7L5N1); remark: listed apart in the source

| Molecule | binding [1] | binding [2] | binding [3] | binding [4] |
| --- | --- | --- | --- | --- |
| CUL4A (endogenous) (from UniProt Q13619 1-759) | binds |  |  |  |
| DDB1 (from UniProt Q16531 1-1140) | binds |  |  |  |
| DDB2 (from UniProt Q92466 1-427) | binds | binds |  |  |
| RBX2 (endogenous) (from UniProt Q9UBF6 1-113) | binds | binds |  |  |
| B1 |  |  | binds | binds |
| B2 |  |  | binds | binds |
